Experimental data reported in paper PMC2363329, “Interaction of the PA2G4 (EBP1) protein with ErbB-3 and regulation of this binding by heregulin” (British Journal of Cancer, 2000).
Results are given in words; binding and its absence hold for the method and conditions named. Binding seen in cells or lysates may run through a third protein. Binding calls can cover weak binding; strength is not graded here.

Protein sequences, listed by entry. Tags and fused reporters are not part of them. Lines headed by an entry give the natural chain unless they say otherwise; changes in a name come on top.
UniProt Q62799: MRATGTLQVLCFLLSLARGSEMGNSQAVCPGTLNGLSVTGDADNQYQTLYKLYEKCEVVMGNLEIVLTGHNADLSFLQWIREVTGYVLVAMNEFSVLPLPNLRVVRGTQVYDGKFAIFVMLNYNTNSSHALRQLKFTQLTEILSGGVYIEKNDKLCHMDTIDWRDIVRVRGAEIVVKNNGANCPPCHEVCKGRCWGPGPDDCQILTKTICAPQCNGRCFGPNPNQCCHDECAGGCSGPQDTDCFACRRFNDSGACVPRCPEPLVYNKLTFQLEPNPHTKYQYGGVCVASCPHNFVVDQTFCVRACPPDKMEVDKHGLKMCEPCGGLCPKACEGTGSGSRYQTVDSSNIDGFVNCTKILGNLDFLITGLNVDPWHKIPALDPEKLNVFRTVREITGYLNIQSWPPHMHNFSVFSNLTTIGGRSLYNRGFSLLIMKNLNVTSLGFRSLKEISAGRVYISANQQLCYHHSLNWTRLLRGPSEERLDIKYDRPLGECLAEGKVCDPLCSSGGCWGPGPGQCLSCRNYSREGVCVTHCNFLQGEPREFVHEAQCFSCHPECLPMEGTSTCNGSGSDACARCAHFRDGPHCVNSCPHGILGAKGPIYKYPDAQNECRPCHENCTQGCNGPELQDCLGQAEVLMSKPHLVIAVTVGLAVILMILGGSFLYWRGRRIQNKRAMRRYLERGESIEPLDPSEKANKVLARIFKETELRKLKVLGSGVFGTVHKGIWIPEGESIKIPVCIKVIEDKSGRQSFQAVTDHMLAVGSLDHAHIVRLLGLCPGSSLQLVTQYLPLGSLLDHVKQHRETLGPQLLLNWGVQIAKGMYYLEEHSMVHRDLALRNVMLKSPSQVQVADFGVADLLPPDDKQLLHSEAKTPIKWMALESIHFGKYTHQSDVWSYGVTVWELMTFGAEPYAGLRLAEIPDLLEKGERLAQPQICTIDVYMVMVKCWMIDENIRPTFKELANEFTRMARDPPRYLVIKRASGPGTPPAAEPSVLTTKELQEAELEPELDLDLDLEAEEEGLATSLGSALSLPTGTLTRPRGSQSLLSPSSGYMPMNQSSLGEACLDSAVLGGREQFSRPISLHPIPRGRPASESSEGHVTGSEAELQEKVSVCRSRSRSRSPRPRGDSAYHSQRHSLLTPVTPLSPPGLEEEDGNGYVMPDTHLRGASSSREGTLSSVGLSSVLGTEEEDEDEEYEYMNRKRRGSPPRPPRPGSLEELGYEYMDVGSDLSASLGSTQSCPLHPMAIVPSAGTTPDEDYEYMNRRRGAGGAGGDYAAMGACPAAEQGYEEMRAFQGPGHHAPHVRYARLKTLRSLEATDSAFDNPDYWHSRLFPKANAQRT

Target: Alanine scanning mutant A5 of GST/ErbB-3 (665-690) (rat) (UniProt Q62799)
Assay: pull-down; equal amounts of purified GST or GST-erbB3 fusion proteins incubated with in vitro translated 35S-labelled Ebp1 at 4C for 2 h; SDS-PAGE and autoradiography; only the target purified

binding: binds
B1: 35S-labelled in vitro translation product of pBK/Ebp1 (amino acids 1-373 of Ebp1) (domain or fragment, UniProt Q9UQ80 1-373)
chain: MSGEDEQQEQTIAEDLVVTKYKMGGDIANRVLRSLVEASSSGVSVLSLCEKGDAMIMEETGKIFKKEKEMKKGIAFPTSISVNNCVCHFSPLKSDQDYILKEGDLVKIDLGVHVDGFIANVAHTFVVDVAQGTQVTGRKADVIKAAHLCAEAALRLVKPGNQNTQVTEAWNKVAHSFNCTPIEGMLSHQLKQHVIDGEKTIIQNPTDQQKKDHEKAEFEVHEVYAVDVLVSSGEGKAKDAGQRTTIYKRDPSKQYGLKMKTSRAFFSEVERRFDAMPFTLRAFEDEKKARMGVVECAKHELLQPFNVLYEKEGEFVAQFKFTVLLMPNGPMRITSGPFEPDLYKSEMEVQDAELKALLQSSASRKTQKKKKKK
modifications: 35S-labelled
